Test results reported in patent publication US20250236600A1, “SUBSTITUTED VINYL PIPERAZINE-PIPERIDINE UREA DERIVATIVES AS ANTICANCER AGENTS” (UNIVERSITA' DEGLI STUDI DI PAVIA, priority 2021, published 2025).
Some entries share one result that the patent states for a list of compounds.

Columns and labels:
Proteasome [1] = assay: Proteasome activity (7-Amido-4-Methylcoumarin fluorescent probe) in U87-MG cells; assay type: cell-based, Human; settings: treated at IC50 of SRB assay, 24 hours, FIG. 11A
Experimental: (§1) Proteasome is a cellular complex responsible for the degradation of a high amount of regulatory, misfolded or damaged intracellular proteins. It is considered an important target for anticancer therapy. Proteasome activity was evaluated by 7-Amido-4-Methylcoumarin fluorescent probe. U87-MG and RPMI 8226 cells were cultured in 6 well-plates at 25×10^4 cells/well density and were treated with IC50 concentration of each compound (calculated in SRB assay). After 24 hours of treatment, cells were collected and total protein extracts were obtained. Lysis buffer (5 mM Hepes pH 7.5, 150 mM NaCl, 10% glycerol, 1% Triton X100, 1.5 mM MgCl2, 5 mM EGTA) was […] with proteases and phosphatases inhibitors. Protein content was quantified using Bradford method. 40 μg of proteins were mixed with proteasome buffer (250 mM Hepes pH 7.5, 5 mM EDTA, 0.5% NP-40, 0.01% SDS) and 2.2 mM 7-Amido-4-Methylcoumarin. After 2 hours of incubation at 37° C., fluorescence was quantified in a microplate reader (excitation 380 nm, emission 460 nm). Statistical analysis of the data obtained was performed using the ANOVA and the Dunnet's post-hoc test. Values of p<0.01 (**) were considered statistically significant. The results, expressed as the mean±standard deviation, represents the percentage of proteasome activity compared to untreated control (arbitrarily set to 100%).

Proteasome [2] = assay: Proteasome activity (7-Amido-4-Methylcoumarin fluorescent probe) in RPMI 8226 cells; assay type: cell-based, Human; settings: RPMI 8226, treated at IC50 of SRB assay, 24 hours, FIG. 11B
Experimental: as §1

With `C/C(=C\CN1CCN(C(=O)NC2CCCCC2)CC1)c1ccc2ccccc2c1` [Compound 27, (E)-N-cyclohexyl-4-(3-(naphthalen-2-yl)but-2-en-1-yl)piperazine-1-carboxamide] the proteasome inhibition (Proteasome [1]) was “greater than 50%”.
With `COc1ccc2cc(/C(C)=C/CN3CCN(C(=O)Nc4c(F)cccc4F)CC3)ccc2c1` [Compound 30, (E)-N-(2,6-difluorophenyl)-4-(3-(6-methoxynaphthalen-2-yl)but-2-en-1-yl)piperazine-1-carboxamide] the proteasome inhibition (Proteasome [1]) was “greater than 50%”.
`C/C(=C\CN1CCN(C(=O)Nc2ccc(C)cc2)CC1)c1ccc2ccccc2c1` [Compound 28, (E)-4-(3-(naphthalen-2-yl)but-2-en-1-yl)-N-(p-tolyl)piperazine-1-carboxamide] was tested, and the proteasome inhibition (Proteasome [2]) was “greater than 50%”.
In the case of `C/C(=C\CN1CCN(C(=O)NC2CCCC2)CC1)c1ccc2ccccc2c1` [Compound 26, (E)-N-cyclopentyl-4-(3-(naphthalen-2-yl)but-2-en-1-yl)piperazine-1-carboxamide], the proteasome inhibition (Proteasome [2]) is reported as “greater than 50%”.
